Source: article PMC2911433
No constants are given. Whether binding was seen depends on the method and setting. Some entries that bind do so weakly or less than the wild type.

Amino acid sequences for entries named in this document (tags omitted). Residues count along the entry.
UniProt P15502, residues 27-786: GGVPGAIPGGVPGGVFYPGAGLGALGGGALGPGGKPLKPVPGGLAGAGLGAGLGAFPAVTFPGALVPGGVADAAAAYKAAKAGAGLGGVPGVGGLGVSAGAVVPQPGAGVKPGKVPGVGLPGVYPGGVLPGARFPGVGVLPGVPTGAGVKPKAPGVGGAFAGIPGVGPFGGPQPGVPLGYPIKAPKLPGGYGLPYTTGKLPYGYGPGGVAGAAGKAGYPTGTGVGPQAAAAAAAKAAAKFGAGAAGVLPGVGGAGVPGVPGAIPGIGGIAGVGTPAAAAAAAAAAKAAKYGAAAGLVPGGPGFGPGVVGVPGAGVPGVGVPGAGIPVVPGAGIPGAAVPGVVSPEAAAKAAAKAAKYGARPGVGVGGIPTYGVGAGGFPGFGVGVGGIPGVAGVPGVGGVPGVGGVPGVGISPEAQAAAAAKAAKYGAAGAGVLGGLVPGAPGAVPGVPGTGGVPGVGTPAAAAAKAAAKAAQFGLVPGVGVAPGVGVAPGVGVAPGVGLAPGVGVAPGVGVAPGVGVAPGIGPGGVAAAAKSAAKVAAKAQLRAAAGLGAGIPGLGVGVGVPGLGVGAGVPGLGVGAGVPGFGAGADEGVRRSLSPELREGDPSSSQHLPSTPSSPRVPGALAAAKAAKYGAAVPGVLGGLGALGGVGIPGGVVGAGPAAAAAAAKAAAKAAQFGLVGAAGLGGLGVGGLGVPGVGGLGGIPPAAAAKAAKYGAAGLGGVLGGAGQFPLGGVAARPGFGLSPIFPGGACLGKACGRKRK
UniProt Q9KGY8: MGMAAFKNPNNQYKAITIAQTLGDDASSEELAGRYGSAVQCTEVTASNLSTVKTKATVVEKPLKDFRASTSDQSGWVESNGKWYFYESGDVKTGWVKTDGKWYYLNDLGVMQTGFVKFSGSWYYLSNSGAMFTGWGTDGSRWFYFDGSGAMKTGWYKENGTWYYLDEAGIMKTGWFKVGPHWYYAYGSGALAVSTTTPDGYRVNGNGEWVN

Legend:
elastin [1] = target: elastin (UniProt P15502); assay: ELISA; solid-phase screen: 1 μg mammalian protein in 100 μL PBS pH7.0 coated on white 96 well plates overnight at 4°C; saturation 1 h with PBS 2% BSA; 200 pmole His-Tagged pneumococcal protein in 100 μL PBS for two hours at room temperature; washes PBS, Tween 0,03%; anti His-HRP antibody, ECL luminescence; positive = twice the BSA negative control in the majority of at least 3 independent experiments; both purified
C-reactive protein [2] = target: T1, C-reactive protein (UniProt P02741); assay: as above
T1 sequence: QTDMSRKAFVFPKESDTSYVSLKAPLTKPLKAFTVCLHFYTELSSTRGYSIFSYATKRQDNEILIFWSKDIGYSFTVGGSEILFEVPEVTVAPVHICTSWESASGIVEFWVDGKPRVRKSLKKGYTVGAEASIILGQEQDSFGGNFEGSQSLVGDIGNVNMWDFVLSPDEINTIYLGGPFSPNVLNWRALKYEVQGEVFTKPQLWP

elastin [3] = target: elastin (UniProt P15502); assay: ELISA; dose-response: same solid-phase protocol, 1 μg mammalian protein coated, increasing quantities of His-tagged pneumococcal protein from 0.8 to 200 pmoles per well; BSA as control; both purified
C-reactive protein [4] = target: T1, C-reactive protein; assay: as above

Measured: binding

CbpI (from UniProt Q9KGY8 1-211)
binds: all assays above
